# Experimental data taken from PMC12381781, “Structural and functional insights into the selective inhibition of mutant tau aggregation by purpurin and oleocanthal in frontotemporal dementia” (Protein Science : A Publication of the Protein Society, 2025).
# Experiment: Control fluorescence measurement without tau peptide (ThT interference)
# Conditions: 10 µM, no tau peptide, aggregation buffer, 48 h
row,Compound,interference with ThT fluorescence reading
1,"C/C=C(/C=O)[C@@H](CC=O)CC(=O)OCCc1ccc(O)cc1 [OLC, oleocanthal]",do not interfere with ThT readings
2,"O=C1c2ccccc2C(=O)c2c(O)c(O)cc(O)c21 [PUR, purpurin]",do not interfere with ThT readings
